PubChem BioAssay AID686938 | Drosophila RNAi Screening Center, 2013
The deposit covers about 23,000 reagents; below is a random part of those with a known target gene and a result. Of all reagents, 75 (0.33%) got an active call. 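Raw plate signals without normalisation; calls rest on plate z-scores that were not deposited; ratio present for only 364 wells.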 Not given: the dose of the treatment.

Aim: 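Fly genes required for calcium entry once internal stores are emptied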 (primary screen)
System: Drosophila S2R+ cells
Reagent: long dsRNA against Drosophila genes, about 0.25 µg dsRNA per well, roughly 10,000 cells
Time to read-out: 5 days of knock-down before the calcium assay
Treatment: thapsigargin (SERCA pump blocker) to empty calcium stores; entry signal taken 4 min after adding it
Read-out: 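Per-well fluo-4 fluorescence in two replicates, unnormalised, measured in resting cells and 4 min after store depletion by the SERCA blocker thapsigargin; ratio of the two present in few wells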
Direction: calcium entry signal: higher = stronger calcium signal after store depletion; entry to resting ratio: higher = more calcium entry relative to resting level; resting calcium signal: higher = higher resting calcium signal
Rule for the call: 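Hit if the duplicate-averaged plate z-score for entry over resting signal is under −3; wells with weak total dye signal (Fmax z < −2) or more than 5 off-targets removed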
Calls: active = strongly reduced calcium entry; inactive = no strong reduction

target | DRSC id | calcium entry signal, replicate 1 (fluorescence units) | calcium entry signal, replicate 2 (fluorescence units) | entry to resting ratio | resting calcium signal, replicate 1 (fluorescence units) | resting calcium signal, replicate 2 (fluorescence units) | outcome
ND-B12 | DRSC04060 | 4.14e7 | 5.57e7 | – | 2.09e7 | 2.26e7 | inactive
mid | DRSC02977 | 2.57e7 | 4.09e7 | – | 1.30e7 | 1.85e7 | inactive
mid | DRSC21493 | 3.12e7 | 3.31e7 | – | 1.65e7 | 1.46e7 | inactive
Vps13 | DRSC06817 | 4.36e7 | 4.12e7 | – | 2.07e7 | 1.97e7 | inactive
Cyp4p3 | DRSC07374 | 6.28e7 | 4.72e7 | – | 2.71e7 | 1.99e7 | inactive
CG6834 | DRSC16125 | 3.93e7 | 4.24e7 | – | 1.91e7 | 2.13e7 | inactive
InR | DRSC16717 | 3.22e7 | 3.84e7 | – | 4.87e7 | 1.63e7 | inactive
Orc2 | DRSC16776 | 3.11e7 | 3.46e7 | – | 1.33e7 | 1.54e7 | inactive
CG7164 | DRSC03018 | 5.90e7 | 5.10e7 | – | 1.88e7 | 1.96e7 | inactive
COX6CL | DRSC00895 | 2.86e7 | 3.94e7 | – | 1.52e7 | 1.57e7 | inactive
CG42810 | DRSC02533 | 3.36e7 | 2.18e7 | – | 1.71e7 | 1.11e7 | inactive
ben | DRSC20310 | 2.79e7 | 2.87e7 | – | 1.34e7 | 1.32e7 | inactive
ben | DRSC21261 | 4.19e7 | 5.00e7 | – | 2.38e7 | 2.25e7 | inactive
Coq3 | DRSC03168 | 3.74e7 | – | – | 1.95e7 | – | inactive
Arl1 | DRSC09667 | 3.93e7 | 4.67e7 | – | 2.12e7 | 2.05e7 | inactive
Bicra | DRSC14417 | 3.53e7 | 5.58e7 | – | 1.84e7 | 2.53e7 | inactive
RhoGDI | DRSC10919 | 3.96e7 | 4.45e7 | – | 1.78e7 | 2.88e7 | inactive
Ir76b | DRSC10831 | 2.96e7 | 5.02e7 | – | 1.47e7 | 2.06e7 | inactive
CG4477 | DRSC10425 | 1.69e7 | 2.70e7 | – | 8.98e6 | 1.21e7 | inactive
rhi | DRSC05996 | 4.65e7 | 5.46e7 | – | 2.09e7 | 2.51e7 | inactive
Sec20 | DRSC12295 | 4.63e7 | 3.09e7 | – | 2.23e7 | 1.64e7 | inactive
Cypl | DRSC08362 | 4.39e7 | 4.52e7 | – | 2.22e7 | 2.07e7 | inactive
dec | DRSC18759 | 3.39e7 | 3.35e7 | – | 1.66e7 | 1.60e7 | inactive
dec | DRSC21477 | 2.99e7 | 2.74e7 | – | 1.57e7 | 1.35e7 | inactive
CG4576 | DRSC15604 | 2.83e7 | 4.65e7 | – | 1.50e7 | 6.19e7 | inactive
Cp38 | DRSC18453 | 3.35e7 | 4.13e7 | – | 1.80e7 | 1.86e7 | inactive
Strip | DRSC08194 | 2.78e7 | 2.17e7 | – | 2.28e7 | 9.89e6 | inactive
CG13282 | DRSC02254 | 3.53e7 | 2.43e7 | – | 1.62e7 | 1.17e7 | inactive
Pabp2 | DRSC07501 | 2.42e7 | 4.57e7 | – | 1.71e7 | 2.04e7 | active
CG32240 | DRSC08093 | 4.05e7 | 4.42e7 | – | 2.19e7 | 2.13e7 | inactive
CG3556 | DRSC18309 | 3.87e7 | 4.14e7 | – | 1.93e7 | 1.98e7 | inactive
cad | DRSC03502 | 1.98e7 | – | – | 1.20e7 | – | inactive
cad | DRSC23193 | 3.85e7 | 4.37e7 | – | 1.95e7 | 1.86e7 | inactive
Ptp4E | DRSC18701 | 2.78e7 | 2.34e7 | – | 1.19e7 | 1.09e7 | inactive
CG7409 | DRSC10842 | 3.71e7 | 5.27e7 | – | 1.67e7 | 2.40e7 | inactive
CG14130 | DRSC10134 | 2.87e7 | 4.69e7 | – | 1.46e7 | 1.81e7 | inactive
NijC | DRSC14851 | 3.11e7 | 3.64e7 | – | 1.74e7 | 1.71e7 | inactive
CAH9 | DRSC15963 | 4.27e7 | 5.58e7 | – | 2.02e7 | 2.26e7 | inactive
AhcyL1 | DRSC08647 | 3.91e7 | 4.09e7 | – | 2.05e7 | 1.97e7 | inactive
CG17005 | DRSC02556 | 3.02e7 | 4.66e7 | – | 1.50e7 | 1.89e7 | inactive
CG9192 | DRSC08639 | 3.11e7 | 4.06e7 | – | 1.58e7 | 1.76e7 | inactive
icln | DRSC07630 | 4.74e7 | 7.68e7 | – | 2.08e7 | 3.32e7 | inactive
CG7646 | DRSC11232 | 3.27e7 | 5.21e7 | – | 1.55e7 | 2.00e7 | inactive
CG33792 | DRSC05355 | 4.85e7 | 3.61e7 | – | 2.14e7 | 1.46e7 | inactive
noi | DRSC12383 | 1.59e7 | 1.60e7 | – | 1.08e7 | 1.07e7 | inactive
Cog4 | DRSC03057 | 3.63e7 | – | – | 2.18e7 | – | inactive
spg | DRSC14373 | 4.11e7 | 6.33e7 | – | 2.07e7 | 2.71e7 | inactive
spg | DRSC14881 | 3.68e7 | 5.65e7 | – | 1.91e7 | 2.46e7 | inactive
Usp14 | DRSC02853 | 5.51e7 | – | – | 2.71e7 | – | inactive
CG13699 | DRSC10048 | 3.88e7 | 7.07e7 | – | 1.94e7 | 2.61e7 | inactive
CG8031 | DRSC16364 | 4.34e7 | 5.34e7 | – | 1.82e7 | 2.20e7 | inactive
CG13300 | DRSC09974 | 3.37e7 | 4.67e7 | – | 1.72e7 | 1.90e7 | inactive
ND-B14.5A | DRSC18500 | 5.18e7 | 5.17e7 | 2 | 2.60e7 | 2.26e7 | inactive
CG5056 | DRSC02808 | 3.12e7 | 4.96e7 | – | 1.59e7 | 2.13e7 | inactive
mrn | DRSC10913 | 3.23e7 | 3.81e7 | – | 1.55e7 | 3.01e7 | inactive
CG31759 | DRSC01230 | 3.75e7 | 4.72e7 | – | 2.01e7 | 2.02e7 | inactive
dila | DRSC06607 | 4.08e7 | 2.90e7 | – | 2.15e7 | 1.36e7 | inactive
sicily | DRSC19704 | 3.85e7 | 6.53e7 | – | 1.88e7 | 3.02e7 | inactive

Not a retest: an excerpt of the list.
target | DRSC id | calcium entry signal, replicate 1 (fluorescence units) | calcium entry signal, replicate 2 (fluorescence units) | entry to resting ratio | resting calcium signal, replicate 1 (fluorescence units) | resting calcium signal, replicate 2 (fluorescence units) | outcome
CG13699 | DRSC10048 | 3.88e7 | 7.07e7 | – | 1.94e7 | 2.61e7 | inactive
CG8031 | DRSC16364 | 4.34e7 | 5.34e7 | – | 1.82e7 | 2.20e7 | inactive
CG13300 | DRSC09974 | 3.37e7 | 4.67e7 | – | 1.72e7 | 1.90e7 | inactive
